Assay results: PubChem BioAssay AID248 (DTP/NCI, 2004)
The list does not hold the whole screen: it gathers tests that were run many times, whatever their T/C, doses with no T/C, and many T/C values between a quarter and a half above the control. Further doses and runs are listed elsewhere. T/C is the treated group as % of the vehicle group. Some entries give survivors of the animals treated and no T/C: the source files T/C as zero there, which appears to mark a toxic dose or a test without result, not a measured value. Some doses without a T/C left all or most animals alive at the check, yet need not have been tolerated: the source hardly ever lists a survival T/C far under the control, and the zero likely stands for such cases as well. Counts of survivors are from the toxicity check (mostly the fifth day) where no day follows; animals may have died later. Schedule codes are those of the source, taken here to give the interval after Q, in days (D) or hours (H), and the number of doses after X. Some schedules carry Z or #; the key to these is not given. Some structures stand for samples that the source files as different forms (salt, stereo form or complex); doses refer to the form tested. Some entries were tested several times; the values are given in rising order. Where survival is the endpoint, this PubChem deposit counts one and a half times the control or more as active, and values a quarter to a half above the control carry no call in these data; other NCI protocols may use other cut-offs. Some T/C values carry the count of animals alive at the toxicity check (mostly the fifth day); where none is given, no animal had died by that day.

System: L1210 leukemia ip in BDF1 mice, survival T/C
Assay: NCI In Vivo Anticancer Drug Screen. Data for tumor model L1210 Leukemia (intraperitoneal) in B6D2F1 (BDF1) mice
Conditions: T/C endpoint: mean survival time, higher T/C = longer survival
[1] = dose: 100.0 mg/kg/injection, schedule: Q04DX003 (ip), vehicle: saline with Tween-80
[2] = dose: 200.0 mg/kg/injection, schedule: Q04DX003 (ip), vehicle: saline with Tween-80
[3] = dose: 400.0 mg/kg/injection, schedule: Q04DX003 (ip), vehicle: saline with Tween-80
[4] = dose: 300.0 mg/kg/injection, schedule: Q01DX001 (ip), vehicle: saline
[5] = dose: 400.0 mg/kg/injection, schedule: Q01DX001 (ip), vehicle: saline

COc1ccc2c(c1OC)C1C3CC=CC3C2C2=[N+]1CCc1cc3c(cc12)OCO3 (stereo not drawn)
survivor count (dose: 25.0 mg/kg/injection, schedule: Q01DX009 (ip), vehicle: saline): 3 of 6 | survivor count (dose: 50.0 mg/kg/injection, schedule: Q01DX009 (ip), vehicle: saline): 0 of 6

Nc1nc(N)c(CCCOc2ccccc2)c(N)n1
survivor count (dose: 400.0 mg/kg/injection, schedule: Q04DX002 (ip), vehicle: saline): 1 of 3

NCC(OCCCc1ccccc1)C(Cl)(Cl)Cl (stereo not drawn)
survivor count (dose: 100.0 mg/kg/injection, schedule: Q01DX009 (ip), vehicle: saline with Tween-80): 1 of 6 | survivor count [1]: 5 of 6 | survivor count [2]: 0 of 6 | survivor count [3]: 0 of 6

CC(CNC1CCCCC1)OC(=O)c1ccc(N)cc1 (stereo not drawn)
survivor count (dose: 150.0 mg/kg/injection, schedule: Q01DX001 (ip), vehicle: saline): 0 of 6 | survivor count [4]: 0 of 6

O=C(CCl)OCCCl
survivor count (dose: 200.0 mg/kg/injection, schedule: Q04DX002 (ip), vehicle: saline with Tween-80): 0 of 3 | survivor count (dose: 400.0 mg/kg/injection, schedule: Q04DX002 (ip), vehicle: saline with Tween-80): 0 of 3

OCCN(CC1C(c2ccccc2)C1c1ccccc1)C1CCCCC1 (stereo not drawn)
survivor count (dose: 12.5 mg/kg/injection, schedule: Q04DX002 (ip), vehicle: Klucel (hydroxypropylcellulose) (HPC)): 3 of 3 | survivor count (dose: 25.0 mg/kg/injection, schedule: Q04DX002 (ip), vehicle: Klucel (hydroxypropylcellulose) (HPC)): 2 of 3

COc1cc(Br)c(CC2c3cc(OC)c(OC)cc3CC[N+]2(C)C)cc1OC (stereo not drawn)
survivor count (dose: 400.0 mg/kg/injection, schedule: Q01DX009 (ip), vehicle: water): 2 of 6

S=c1cc(S)c(=S)[nH][nH]1
survivor count (dose: 40.0 mg/kg/injection, schedule: Q01DX001 (ip), vehicle: other): 0 of 4 | survivor count (dose: 80.0 mg/kg/injection, schedule: Q01DX001 (ip), vehicle: other): 0 of 4

CCN(CC)C(C)COC(=O)c1ccc(N)cc1 (stereo not drawn)
survivor count (dose: 100.0 mg/kg/injection, schedule: Q04DX003 (ip), vehicle: saline): 6 of 6 | survivor count (dose: 200.0 mg/kg/injection, schedule: Q04DX003 (ip), vehicle: saline): 0 of 6 | survivor count (dose: 400.0 mg/kg/injection, schedule: Q04DX003 (ip), vehicle: saline): 1 of 6

O=C(Cc1ccccc1)NC(CSSCC(NC(=O)Cc1ccccc1)C(=O)O)C(=O)O (stereo not drawn)
T/C (dose: 200.0 mg/kg/injection, schedule: Q01DX009 (ip), vehicle: saline): 125 % of control

O=C(CCN1CC1)Nc1ccc(Cc2ccc(NC(=O)CCN3CC3)cc2)cc1
survivor count (dose: 100.0 mg/kg/injection, schedule: Q04DX003 (ip), vehicle: Klucel (hydroxypropylcellulose) (HPC)): 3 of 6 | survivor count (dose: 200.0 mg/kg/injection, schedule: Q04DX003 (ip), vehicle: Klucel (hydroxypropylcellulose) (HPC)): 0 of 6 | survivor count (dose: 400.0 mg/kg/injection, schedule: Q04DX003 (ip), vehicle: Klucel (hydroxypropylcellulose) (HPC)): 0 of 6

CC1CN1C(=O)Nc1cccc2c(NC(=O)N3CC3C)cccc12 (stereo not drawn)
T/C (dose: 3.61 mg/kg/injection, schedule: Q01DX009 (ip), vehicle: Klucel (hydroxypropylcellulose) (HPC)): 126 % of control | T/C (dose: 5.42 mg/kg/injection, schedule: Q01DX009 (ip), vehicle: Klucel (hydroxypropylcellulose) (HPC)): 128 % of control | T/C (dose: 8.22 mg/kg/injection, schedule: Q01DX009 (ip), vehicle: Klucel (hydroxypropylcellulose) (HPC)): 126 % of control | T/C (dose: 25.0 mg/kg/injection, schedule: Q04DX003 (ip), vehicle: Klucel (hydroxypropylcellulose) (HPC)): 128 % of control | T/C (dose: 28.0 mg/kg/injection, schedule: Q01DX009 (ip), vehicle: Klucel (hydroxypropylcellulose) (HPC)): 125 and 142 % of control | T/C (dose: 33.0 mg/kg/injection, schedule: Q01DX001 (ip), vehicle: Klucel (hydroxypropylcellulose) (HPC)): 126 and 133 % of control | T/C (dose: 33.0 mg/kg/injection, schedule: Q04DX003 (ip), vehicle: Klucel (hydroxypropylcellulose) (HPC)): 134 and 135 % of control | T/C (dose: 42.5 mg/kg/injection, schedule: Q01DX009 (ip), vehicle: Klucel (hydroxypropylcellulose) (HPC)): 142 % of control | T/C (dose: 50.0 mg/kg/injection, schedule: Q01DX001 (ip), vehicle: Klucel (hydroxypropylcellulose) (HPC)): 143 % of control | T/C (dose: 50.0 mg/kg/injection, schedule: Q04DX003 (ip), vehicle: Klucel (hydroxypropylcellulose) (HPC)): 135 and 142 % of control | survivor count (dose: 63.0 mg/kg/injection, schedule: Q01DX009 (ip), vehicle: Klucel (hydroxypropylcellulose) (HPC)): 6 of 6 | T/C (dose: 75.0 mg/kg/injection, schedule: Q01DX001 (ip), vehicle: Klucel (hydroxypropylcellulose) (HPC)): 126 % of control | T/C (dose: 75.0 mg/kg/injection, schedule: Q04DX003 (ip), vehicle: Klucel (hydroxypropylcellulose) (HPC)): 144 % of control | T/C (dose: 100.0 mg/kg/injection, schedule: Q01DX001 (ip), vehicle: Klucel (hydroxypropylcellulose) (HPC)): 132 % of control | T/C (dose: 110.0 mg/kg/injection, schedule: Q04DX003 (ip), vehicle: Klucel (hydroxypropylcellulose) (HPC)): 140 % of control | survivor count (dose: 170.0 mg/kg/injection, schedule: Q01DX009 (ip), vehicle: Klucel (hydroxypropylcellulose) (HPC)): 5 of 6 | survivor count (dose: 255.0 mg/kg/injection, schedule: Q04DX003 (ip), vehicle: Klucel (hydroxypropylcellulose) (HPC)): 2 of 6

Cc1ccc(N=CNN=C(N)N)cc1
survivor count (dose: 60.0 mg/kg/injection, schedule: Q01DX Z (oral), vehicle: methylcellulose (MC)): 6 of 6

CC(C)NC(=O)C1CC2c3cccc4[nH]c(Br)c(c34)CC2N(C)C1 (stereo not drawn)
survivor count [1]: 0 of 6 | survivor count [2]: 0 of 6 | survivor count [3]: 0 of 6

Clc1ncnc2c1ncn2C1CCCO1 (stereo not drawn)
T/C (dose: 600.0 mg/kg/injection, schedule: Q01DX009 (ip), vehicle: saline): 146 % of control [5 of 6 alive]

COc1ccc(OC)c2ncccc12
survivor count (dose: 200.0 mg/kg/injection, schedule: Q01DX001 (ip), vehicle: saline): 0 of 6 | survivor count [5]: 0 of 6

CSC(CC(=O)O)C(=O)O (stereo not drawn)
survivor count [4]: 3 of 6

CN=C(N)c1ccc(NC(=O)c2ccc(C(=O)Nc3ccc(C(N)=NC)cc3)c(N)c2)cc1
T/C (dose: 1.0 mg/kg/injection, schedule: Q01DX Z (ip), vehicle: carboxymethylcellulose (CMC)): 138 % of control | T/C (dose: 8.0 mg/kg/injection, schedule: Q01DX Z (ip), vehicle: carboxymethylcellulose (CMC)): 140 % of control [5 of 6 alive] | survivor count (dose: 16.0 mg/kg/injection, schedule: Q01DX Z (ip), vehicle: carboxymethylcellulose (CMC)): 4 of 6 | T/C (dose: 22.5 mg/kg/injection, schedule: Q01DX001 (sc), vehicle: water): 130 % of control | survivor count (dose: 32.0 mg/kg/injection, schedule: Q01DX Z (ip), vehicle: carboxymethylcellulose (CMC)): 1 of 6 | survivor count (dose: 64.0 mg/kg/injection, schedule: Q01DX Z (ip), vehicle: carboxymethylcellulose (CMC)): 0 of 6

CCCCNCCN(CC)CC
survivor count [2]: 0 of 6 | survivor count [3]: 0 of 6

CN(CC(O)CN)c1ccccc1 (stereo not drawn)
survivor count [5]: 0 of 4

Cn1cnc([N+](=O)[O-])c1S(=O)(=O)NCN1CCOCC1
survivor count (dose: 12.5 mg/kg/injection, schedule: Q01DX009 (ip), vehicle: Klucel (hydroxypropylcellulose) (HPC)): 6 of 6 | T/C (dose: 50.0 mg/kg/injection, schedule: Q01DX009 (ip), vehicle: Klucel (hydroxypropylcellulose) (HPC)): 130 % of control | survivor count (dose: 400.0 mg/kg/injection, schedule: Q01DX009 (ip), vehicle: Klucel (hydroxypropylcellulose) (HPC)): 2 of 6

O=C(Nc1ccc(CC2=NCCN2)cc1)c1ccc(C(=O)Nc2ccc(CC3=NCCN3)cc2)cc1
survivor count (dose: 15.0 mg/kg/injection, schedule: Q01DX Z (ip), vehicle: saline): 0 of 6 | survivor count (dose: 30.0 mg/kg/injection, schedule: Q01DX Z (ip), vehicle: saline): 0 of 6 | survivor count (dose: 60.0 mg/kg/injection, schedule: Q01DX Z (ip), vehicle: saline): 0 of 6 | survivor count (dose: 120.0 mg/kg/injection, schedule: Q01DX Z (ip), vehicle: saline): 0 of 6

CCNC(C)(C)C(S)c1ccc(Cl)s1 (stereo not drawn)
survivor count (dose: 200.0 mg/kg/injection, schedule: Q01DX009 (ip), vehicle: saline with Tween-80): 3 of 6 | survivor count [3]: 1 of 6

COc1cc2c(cc1OC)C(CC1=C(c3ccccc3)CN3CCc4cc(OC)c(OC)cc4C3C1)NCC2 (stereo not drawn)
survivor count [4]: 1 of 6 and 2 of 6

CC(C)CC(NC(=O)C(F)(F)F)C(=O)O (stereo not drawn)
survivor count [3]: 4 of 6
